Measured values from patent US20020199211A1 (CHILDREN S MEDICAL CENTER, published 2002).

What was measured:
[1] = molecular target: T1, Glutathione S-transferase (GST) alone (UniProt P08515 1-218 = GST); experiment: affinity precipitation on GSH beads from BJAB lysate, anti-WIP Western blot
T1 construct: also called control GST

[2] = molecular target: T2, full length WASP cloned into the bait vector pGBT9 (Gal4 binding domain fusion) (UniProt P04386 1-147; P42768 1-502); experiment: yeast two-hybrid
T2 construct: also called WAS protein

B1: endogenous WIP from BJAB cells (other)
chain: MPVPPPPAPPPPPTFALANTEKPTLNKTEQAGRNALLSDISKGKKLKKTVTNDRSAPILDKPKGAGAGGGGGGFGGGGGFGGGGGGGGGGSFGGGGPPGLGGLFQAGMPKLRSTANRDNDSGGSRPPLLPPGGRSTSAKPFSPPSGPGRFPVPSPGHRSGPPEPQRNRMPPPRPDVGSKPDSIPPPVPSTPRPIQSSLHNRGSPPVPGGPRQPSPGPTPPPFPGNRGTALGGGSIRQSPLSSSSPFSNRPPLPPTPSRALDDKPPPPPPPVGNRPSIHREAVPPPPPQNNKPPVPSTPRPSAPHRPHLRPPPPSRPGPPPLPPSSSGNDETPRLPQRNLSLSSSTPPLPSPGRSGPLPPPPSERPPPPVRDPPGRSGPLPPPPPVSRNGSTSRALPATPQLPSRSGVDSPRSGPRPPLPPDRPSAGAPPPPPPSTSIRNGFQDSPCEDEWESRFYFHPISDLPPPEPYVQTTKSYPSKLARNESRSGSNRRERGGPPLPPIPR
notes: Endogenous protein in BJAB lysate, detected with anti-WIP rabbit antibody; also called full-length WIP
Q: Does B1 bind [1]?
A: no binding

B2: pGAD-WIP-(321-415) (other, not shown: large carriers)
chain: LPPSSSGNDETPRLPQRNLSLSSSTPPLPSPGRSGPLPPPPSERPPPPVRDPPGRSGPLPPPPPVSRNGSTSRALPATPQLPSRSGVDSPRSGPR
notes: Made from pGAD-WIP4 by StuI and PstI digestion
Q: Does B2 bind [2]?
A: no binding
